± gives the standard deviation of the averaged measurements. Only a part is listed here, and it is no random draw.
Compound: Nc1ncnc2c1ncn2[C@@H]1O[C@H](COP(=O)(O)OP(=O)(O)OP(=O)(O)O)[C@@H](O)[C@H]1O [adenosine triphosphate]
Assay: NP40-soluble protein abundance relative to vehicle (solubility fold change) (ratio); higher = more soluble protein in presence of ATP
Procedure, shortened: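 Data come from three independent experiments in which Dounce-homogenised Jurkat crude lysate was treated at eight concentrations from 0.1 to 10 mM. Treatment ran 10 min at room temperature and then 3 min at 37 °C, after which 0.8% NP40 and benzonase were added for 60 min at 4 °C before ultracentrifugation. The supernatant underwent TMT labelling and LC-MS/MS, and vsn-normalised intensities were expressed as fold change against the detergent-processed vehicle in each replicate.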

By UniProt entry, the sequences of proteins in these tests, tags left out. Where a name states a change or a piece, a line headed by the entry shows the natural chain unless it says otherwise.
UniProt Q6IAN0: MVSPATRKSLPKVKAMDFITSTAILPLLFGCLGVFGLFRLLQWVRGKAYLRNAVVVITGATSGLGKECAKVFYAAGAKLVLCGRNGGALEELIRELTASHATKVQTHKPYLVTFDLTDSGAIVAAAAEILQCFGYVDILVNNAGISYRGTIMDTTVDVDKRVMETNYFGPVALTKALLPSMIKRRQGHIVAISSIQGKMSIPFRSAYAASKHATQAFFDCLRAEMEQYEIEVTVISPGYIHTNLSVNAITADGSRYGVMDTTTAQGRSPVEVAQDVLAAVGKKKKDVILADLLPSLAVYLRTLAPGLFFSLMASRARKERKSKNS
UniProt Q9Y4E1, whole entry: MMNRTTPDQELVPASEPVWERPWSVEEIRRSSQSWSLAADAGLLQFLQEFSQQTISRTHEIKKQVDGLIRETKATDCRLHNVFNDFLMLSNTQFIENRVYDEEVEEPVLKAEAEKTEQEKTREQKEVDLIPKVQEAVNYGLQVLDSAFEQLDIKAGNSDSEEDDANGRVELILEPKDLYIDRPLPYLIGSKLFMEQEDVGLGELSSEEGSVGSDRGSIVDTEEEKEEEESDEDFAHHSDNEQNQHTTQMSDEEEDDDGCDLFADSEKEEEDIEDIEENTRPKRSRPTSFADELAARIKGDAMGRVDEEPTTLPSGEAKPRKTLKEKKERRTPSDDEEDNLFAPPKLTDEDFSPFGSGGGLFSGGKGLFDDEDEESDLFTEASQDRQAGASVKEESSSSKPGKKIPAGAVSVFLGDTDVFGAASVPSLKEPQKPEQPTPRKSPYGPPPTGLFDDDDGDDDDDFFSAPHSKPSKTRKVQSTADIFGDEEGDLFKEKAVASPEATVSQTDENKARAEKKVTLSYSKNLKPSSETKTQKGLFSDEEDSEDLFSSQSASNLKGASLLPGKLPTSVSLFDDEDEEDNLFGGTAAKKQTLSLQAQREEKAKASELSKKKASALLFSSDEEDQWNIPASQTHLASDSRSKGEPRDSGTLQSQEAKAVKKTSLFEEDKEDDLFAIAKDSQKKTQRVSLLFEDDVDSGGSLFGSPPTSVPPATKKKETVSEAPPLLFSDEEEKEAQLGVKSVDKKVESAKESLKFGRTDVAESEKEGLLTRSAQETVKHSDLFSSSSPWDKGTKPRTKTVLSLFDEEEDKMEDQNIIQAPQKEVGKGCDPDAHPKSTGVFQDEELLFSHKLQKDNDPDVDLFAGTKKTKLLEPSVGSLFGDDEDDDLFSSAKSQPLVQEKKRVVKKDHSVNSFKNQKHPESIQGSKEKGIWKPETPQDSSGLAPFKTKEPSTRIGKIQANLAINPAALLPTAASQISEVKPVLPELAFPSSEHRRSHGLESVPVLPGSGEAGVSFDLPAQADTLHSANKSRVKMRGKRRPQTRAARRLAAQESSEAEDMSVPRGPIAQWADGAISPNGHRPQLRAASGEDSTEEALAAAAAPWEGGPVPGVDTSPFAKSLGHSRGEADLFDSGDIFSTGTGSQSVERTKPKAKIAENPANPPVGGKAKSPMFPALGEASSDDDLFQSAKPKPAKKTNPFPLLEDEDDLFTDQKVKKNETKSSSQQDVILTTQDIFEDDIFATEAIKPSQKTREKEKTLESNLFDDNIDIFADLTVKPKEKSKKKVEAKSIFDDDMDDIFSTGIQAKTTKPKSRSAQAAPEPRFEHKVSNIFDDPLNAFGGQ
UniProt Q96C36: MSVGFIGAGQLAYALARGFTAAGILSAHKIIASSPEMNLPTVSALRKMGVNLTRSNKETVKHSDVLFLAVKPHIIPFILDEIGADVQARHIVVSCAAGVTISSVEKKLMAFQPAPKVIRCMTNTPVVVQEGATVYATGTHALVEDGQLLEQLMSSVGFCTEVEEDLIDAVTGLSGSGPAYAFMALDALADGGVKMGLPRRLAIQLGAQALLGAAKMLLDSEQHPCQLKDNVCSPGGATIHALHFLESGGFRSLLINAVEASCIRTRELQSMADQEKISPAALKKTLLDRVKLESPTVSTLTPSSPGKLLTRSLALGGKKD
UniProt P42330: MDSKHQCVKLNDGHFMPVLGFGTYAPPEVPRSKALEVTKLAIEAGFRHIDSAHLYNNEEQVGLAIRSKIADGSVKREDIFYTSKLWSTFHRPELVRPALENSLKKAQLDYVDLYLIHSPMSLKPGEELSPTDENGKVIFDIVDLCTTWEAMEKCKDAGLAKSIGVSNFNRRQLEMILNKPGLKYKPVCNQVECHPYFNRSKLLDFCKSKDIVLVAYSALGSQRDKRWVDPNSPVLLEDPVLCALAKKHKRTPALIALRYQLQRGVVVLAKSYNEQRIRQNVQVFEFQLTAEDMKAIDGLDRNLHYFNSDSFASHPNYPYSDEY
UniProt Q9BUJ2: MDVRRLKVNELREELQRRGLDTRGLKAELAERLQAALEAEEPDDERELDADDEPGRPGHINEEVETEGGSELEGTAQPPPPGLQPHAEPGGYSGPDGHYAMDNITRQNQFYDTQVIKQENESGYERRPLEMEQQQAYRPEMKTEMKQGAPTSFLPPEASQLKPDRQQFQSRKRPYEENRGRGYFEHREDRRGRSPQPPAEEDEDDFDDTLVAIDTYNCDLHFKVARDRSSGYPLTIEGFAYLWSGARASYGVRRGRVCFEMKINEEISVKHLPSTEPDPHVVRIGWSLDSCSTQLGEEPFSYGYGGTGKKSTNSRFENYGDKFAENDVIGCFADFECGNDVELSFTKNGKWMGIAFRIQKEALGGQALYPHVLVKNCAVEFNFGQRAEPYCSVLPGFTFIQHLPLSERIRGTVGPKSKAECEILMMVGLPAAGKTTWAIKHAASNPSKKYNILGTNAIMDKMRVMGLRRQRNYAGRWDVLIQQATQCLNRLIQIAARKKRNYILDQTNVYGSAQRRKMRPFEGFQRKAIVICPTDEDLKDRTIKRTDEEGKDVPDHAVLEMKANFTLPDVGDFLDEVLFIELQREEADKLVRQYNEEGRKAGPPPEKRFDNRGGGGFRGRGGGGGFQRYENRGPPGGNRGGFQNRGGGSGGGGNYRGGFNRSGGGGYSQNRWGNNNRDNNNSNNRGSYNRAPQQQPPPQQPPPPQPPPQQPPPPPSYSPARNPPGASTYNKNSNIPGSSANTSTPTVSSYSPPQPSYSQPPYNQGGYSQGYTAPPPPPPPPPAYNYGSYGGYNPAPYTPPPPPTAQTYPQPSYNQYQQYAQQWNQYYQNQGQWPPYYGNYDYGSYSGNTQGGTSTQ
UniProt Q9H4L4: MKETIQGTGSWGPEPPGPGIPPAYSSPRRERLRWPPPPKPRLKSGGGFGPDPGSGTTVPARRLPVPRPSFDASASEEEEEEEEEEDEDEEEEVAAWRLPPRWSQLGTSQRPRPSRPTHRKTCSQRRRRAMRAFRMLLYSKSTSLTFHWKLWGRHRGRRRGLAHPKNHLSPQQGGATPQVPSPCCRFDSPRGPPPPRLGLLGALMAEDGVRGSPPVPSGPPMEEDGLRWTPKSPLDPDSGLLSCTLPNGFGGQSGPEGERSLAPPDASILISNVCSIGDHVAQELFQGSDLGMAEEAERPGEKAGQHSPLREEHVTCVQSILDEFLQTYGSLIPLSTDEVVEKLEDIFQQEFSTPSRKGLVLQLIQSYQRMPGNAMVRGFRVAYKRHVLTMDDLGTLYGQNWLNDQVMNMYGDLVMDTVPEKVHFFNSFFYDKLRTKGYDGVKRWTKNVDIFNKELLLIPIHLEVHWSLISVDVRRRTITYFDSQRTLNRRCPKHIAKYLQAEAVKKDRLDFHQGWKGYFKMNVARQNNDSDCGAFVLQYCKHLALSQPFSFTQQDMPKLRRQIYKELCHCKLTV
UniProt P01850: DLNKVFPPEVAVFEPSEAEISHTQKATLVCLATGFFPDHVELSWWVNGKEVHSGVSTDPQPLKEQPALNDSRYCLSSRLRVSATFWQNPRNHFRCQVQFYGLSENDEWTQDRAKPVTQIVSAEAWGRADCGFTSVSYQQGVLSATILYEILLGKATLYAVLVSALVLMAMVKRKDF
UniProt Q13017, whole entry: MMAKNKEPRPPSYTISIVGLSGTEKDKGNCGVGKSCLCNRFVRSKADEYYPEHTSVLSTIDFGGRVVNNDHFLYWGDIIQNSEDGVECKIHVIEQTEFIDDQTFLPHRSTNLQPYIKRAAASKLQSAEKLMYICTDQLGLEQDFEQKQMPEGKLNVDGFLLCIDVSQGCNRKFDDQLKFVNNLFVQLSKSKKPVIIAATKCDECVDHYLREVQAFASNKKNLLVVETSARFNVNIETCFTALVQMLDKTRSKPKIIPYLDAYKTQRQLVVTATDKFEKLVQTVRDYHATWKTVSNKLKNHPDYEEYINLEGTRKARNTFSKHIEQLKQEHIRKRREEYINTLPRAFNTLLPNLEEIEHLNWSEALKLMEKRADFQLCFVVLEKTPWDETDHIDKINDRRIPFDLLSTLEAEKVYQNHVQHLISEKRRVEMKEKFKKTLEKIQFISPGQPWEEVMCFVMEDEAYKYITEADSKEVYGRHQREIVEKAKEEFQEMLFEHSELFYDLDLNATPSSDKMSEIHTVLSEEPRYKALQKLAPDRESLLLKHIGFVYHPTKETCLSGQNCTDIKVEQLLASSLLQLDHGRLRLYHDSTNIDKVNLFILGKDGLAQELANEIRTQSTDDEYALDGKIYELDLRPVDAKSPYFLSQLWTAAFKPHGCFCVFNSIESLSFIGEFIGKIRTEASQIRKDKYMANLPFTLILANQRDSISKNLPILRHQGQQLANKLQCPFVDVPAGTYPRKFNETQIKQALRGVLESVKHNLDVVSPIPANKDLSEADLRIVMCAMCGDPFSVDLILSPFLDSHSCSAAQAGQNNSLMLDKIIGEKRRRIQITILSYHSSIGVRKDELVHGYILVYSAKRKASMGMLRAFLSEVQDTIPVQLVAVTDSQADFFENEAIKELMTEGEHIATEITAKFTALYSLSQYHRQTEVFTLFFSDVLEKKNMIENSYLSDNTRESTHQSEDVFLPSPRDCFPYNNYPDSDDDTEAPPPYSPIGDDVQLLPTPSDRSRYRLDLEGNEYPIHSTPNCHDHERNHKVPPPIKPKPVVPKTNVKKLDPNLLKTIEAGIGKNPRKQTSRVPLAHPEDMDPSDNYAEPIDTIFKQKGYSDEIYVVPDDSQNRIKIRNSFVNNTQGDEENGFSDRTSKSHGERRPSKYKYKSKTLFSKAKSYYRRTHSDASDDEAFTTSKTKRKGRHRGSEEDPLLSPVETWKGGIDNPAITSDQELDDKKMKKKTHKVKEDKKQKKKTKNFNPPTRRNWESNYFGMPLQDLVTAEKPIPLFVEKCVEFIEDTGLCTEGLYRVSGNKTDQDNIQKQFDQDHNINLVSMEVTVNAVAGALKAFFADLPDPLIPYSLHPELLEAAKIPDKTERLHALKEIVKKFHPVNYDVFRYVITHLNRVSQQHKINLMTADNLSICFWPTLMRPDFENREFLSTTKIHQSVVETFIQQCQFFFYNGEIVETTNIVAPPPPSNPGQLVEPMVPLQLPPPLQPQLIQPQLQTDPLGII
UniProt Q14114: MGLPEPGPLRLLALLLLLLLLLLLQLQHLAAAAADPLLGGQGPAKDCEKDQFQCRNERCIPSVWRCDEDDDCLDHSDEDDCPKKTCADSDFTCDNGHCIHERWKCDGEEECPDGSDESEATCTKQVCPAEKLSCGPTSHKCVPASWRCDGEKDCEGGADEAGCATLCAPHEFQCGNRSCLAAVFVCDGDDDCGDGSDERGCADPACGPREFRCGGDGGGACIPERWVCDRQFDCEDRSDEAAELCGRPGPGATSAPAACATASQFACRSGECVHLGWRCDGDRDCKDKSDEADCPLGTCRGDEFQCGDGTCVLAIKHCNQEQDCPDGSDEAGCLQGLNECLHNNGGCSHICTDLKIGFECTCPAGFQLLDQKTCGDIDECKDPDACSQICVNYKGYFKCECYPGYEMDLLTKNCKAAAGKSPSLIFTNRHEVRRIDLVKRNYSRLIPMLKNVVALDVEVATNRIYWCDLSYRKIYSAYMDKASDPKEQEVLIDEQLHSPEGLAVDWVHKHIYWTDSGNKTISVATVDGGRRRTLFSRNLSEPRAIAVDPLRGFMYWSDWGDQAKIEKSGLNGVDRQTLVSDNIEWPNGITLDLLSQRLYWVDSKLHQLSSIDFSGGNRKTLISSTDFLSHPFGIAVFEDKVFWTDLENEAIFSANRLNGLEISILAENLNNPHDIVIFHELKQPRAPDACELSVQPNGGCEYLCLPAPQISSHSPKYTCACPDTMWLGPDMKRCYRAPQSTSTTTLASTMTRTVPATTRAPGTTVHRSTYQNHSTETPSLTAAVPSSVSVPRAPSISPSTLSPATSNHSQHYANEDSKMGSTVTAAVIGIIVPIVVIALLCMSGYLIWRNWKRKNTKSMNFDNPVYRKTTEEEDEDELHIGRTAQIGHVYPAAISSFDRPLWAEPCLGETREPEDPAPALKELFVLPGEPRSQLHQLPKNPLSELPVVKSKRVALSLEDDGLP
UniProt P57105: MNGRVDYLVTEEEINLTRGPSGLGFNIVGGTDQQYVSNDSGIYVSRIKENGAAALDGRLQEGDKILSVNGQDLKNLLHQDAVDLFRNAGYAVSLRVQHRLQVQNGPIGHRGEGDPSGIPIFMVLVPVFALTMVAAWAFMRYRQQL

Target	NP40-soluble protein abundance (concentration: 1mM)	NP40-soluble protein abundance (concentration: 2mM)	NP40-soluble protein abundance (concentration: 4mM)	NP40-soluble protein abundance (concentration: 6mM)	NP40-soluble protein abundance (concentration: 8mM)	NP40-soluble protein abundance (concentration: 10mM)
A0A0C4DG33|H7BZH3 and related entries (UniProt O43933)	1.1 ± 0.086	1.11 ± 0.064	1.18 ± 0.029	1.09 ± 0.041	1.17 ± 0.077	1.14 ± 0.067
A0A087WYU1|Q9Y5X1 (UniProt Q9Y5X1)	0.96 ± 0.057	0.984 ± 0.033	0.995 ± 0.037	1.01 ± 0.049	1.01 ± 0.0068	1.02 ± 0.015
A0A0A0MRN1|Q5T8I9 (UniProt Q5T8I9)	0.989 ± 0.08	0.983 ± 0.02	1.029 ± 0.0099	0.934 ± 0.012	1.04 ± 0.1	1.01 ± 0.1
A0A087WWH3|Q9NZM4 and related entries (UniProt Q9NZM4)	1.04 ± 0.14	1.09 ± 0.087	1.06 ± 0.099	1.15 ± 0.17	1.04 ± 0.087	0.991 ± 0.08
A0A0C4DGQ8|Q6IAN0 (UniProt Q6IAN0)	1.1 ± 0.18	1.04 ± 0.12	1.04 ± 0.055	0.977 ± 0.091	1.14 ± 0.12	1.08 ± 0.15
A0A087WW65|O75027 and related entries (UniProt O75027)	1.12 ± 0.22	1.06 ± 0.08	1.04 ± 0.078	0.957 ± 0.12	1.04 ± 0.051	1.02 ± 0.075
A0A0A0MRZ4|E7EMV7 and related entries (UniProt Q15025)	0.961 ± 0.1	0.933 ± 0.013	0.971 ± 0.01	0.981 ± 0.086	0.968 ± 0.069	0.9375 ± 0.0033
A0A087WUC6|E9PI68 and related entries (UniProt Q15005)	0.928 ± 0.064	0.952 ± 0.041	0.943 ± 0.034	0.972 ± 0.024	0.935 ± 0.044	0.927 ± 0.026
A0A096LPC5|A0A0A0MR88|Q9Y4E1-4|Q9Y4E1-6 (UniProt Q9Y4E1)	0.9861 ± 0.0043	0.953 ± 0.035	0.969 ± 0.069	0.962 ± 0.038	0.922 ± 0.045	0.978 ± 0.019
A0A0A0MS41|Q9BWM7 (UniProt Q9BWM7)	0.977 ± 0.026	0.996 ± 0.019	1.02 ± 0.035	0.996 ± 0.063	0.9784 ± 0.0083	0.998 ± 0.064
A0A0A6YYC8|I3L1I5 (UniProt I3L1I5)	0.895 ± 0.045	0.892 ± 0.033	0.93 ± 0.024	0.892 ± 0.11	0.893 ± 0.015	0.877 ± 0.087
A0A0A6YY92|P30566 (UniProt P30566)	0.995 ± 0.058	0.987 ± 0.04	0.946 ± 0.044	0.959 ± 0.052	0.968 ± 0.052	0.96 ± 0.042
A0A087WT59|A0A087WV45|P02766 (UniProt P02766)	0.918 ± 0.12	0.919 ± 0.056	0.887 ± 0.067	0.891 ± 0.1	0.878 ± 0.014	0.848 ± 0.11
A0A0D9SFR6|Q86XP1 and related entries (UniProt Q86XP1)	1.06 ± 0.051	1.03 ± 0.055	1.08 ± 0.098	1.06 ± 0.035	0.98 ± 0.086	1.03 ± 0.051
A0A087X0Q9|Q9BVL4 (UniProt Q9BVL4)	0.985 ± 0.047	0.994 ± 0.025	0.985 ± 0.029	0.993 ± 0.061	1.02 ± 0.028	1.004 ± 0.0078
A0A087WVN1|Q5JPI9 (UniProt Q5JPI9)	1.01 ± 0.028	1.06 ± 0.046	1.1 ± 0.11	1.09 ± 0.11	1.02 ± 0.065	1.03 ± 0.045
A0A0A6YYI3|A0A0B4J1V8|Q9NQ55 and related entries (UniProt Q9NQ55)	1.03 ± 0.032	1.04 ± 0.037	1.17 ± 0.066	1.28 ± 0.013	1.32 ± 0.069	1.43 ± 0.098
A0A087WY96|P31641 (UniProt P31641)	0.947 ± 0.055	0.979 ± 0.056	0.88 ± 0.038	0.903 ± 0.038	0.899 ± 0.035	0.914 ± 0.032
A0A096LP75|C4AMC7 and related entries (UniProt Q6VEQ5+C4AMC7)	0.904 ± 0.033	0.9664 ± 0.0048	0.997 ± 0.066	0.961 ± 0.089	0.936 ± 0.057	0.895 ± 0.018
A0A087WYP2|Q8IZQ5 (UniProt Q8IZQ5)	1.05 ± 0.05	1.12 ± 0.021	1.12 ± 0.026	1.08 ± 0.039	1.13 ± 0.042	1.12 ± 0.095
A0A087WTV6|Q96C36 (UniProt Q96C36)	0.984 ± 0.069	0.974 ± 0.084	0.931 ± 0.046	0.985 ± 0.1	0.929 ± 0.059	0.944 ± 0.032
A0A0A0MSS3|Q5T6P1 and related entries (UniProt Q8ND83)	0.967 ± 0.047	0.997 ± 0.019	1.02 ± 0.059	0.991 ± 0.051	0.978 ± 0.061	1.01 ± 0.056
A0A0A6YY95|Q9Y240 (UniProt Q9Y240)	0.973 ± 0.037	1.02 ± 0.051	1.06 ± 0.054	1.04 ± 0.072	1.01 ± 0.03	1.05 ± 0.027
A0A0A0MSB8|Q9UPT5 and related entries (UniProt Q9UPT5)	1.02 ± 0.042	1.02 ± 0.035	0.994 ± 0.048	1.03 ± 0.045	0.981 ± 0.06	0.982 ± 0.014
A0A087WZ62	0.984 ± 0.058	–	0.968 ± 0.019	0.994 ± 0.073	0.969 ± 0.06	0.968 ± 0.0087
A0A0A0MSS8|P42330 and related entries (UniProt P42330)	0.983 ± 0.037	1.02 ± 0.056	0.976 ± 0.083	0.951 ± 0.12	0.953 ± 0.028	0.966 ± 0.072
A0A087WXR7|Q5TBB1 (UniProt Q5TBB1)	0.957 ± 0.034	0.943 ± 0.01	0.903 ± 0.02	0.966 ± 0.028	0.914 ± 0.049	0.911 ± 0.025

Target	NP40-soluble protein abundance (concentration: 1mM)	NP40-soluble protein abundance (concentration: 2mM)	NP40-soluble protein abundance (concentration: 4mM)	NP40-soluble protein abundance (concentration: 6mM)	NP40-soluble protein abundance (concentration: 8mM)	NP40-soluble protein abundance (concentration: 10mM)
A0A0A0MRW1|Q5T593 and related entries (UniProt Q8IW50)	0.8988 ± 0.0025	0.866 ± 0.059	0.818 ± 0.1	0.899 ± 0.16	0.858 ± 0.044	0.859 ± 0.13
A0A0A0MRS4|Q9NVV0 (UniProt Q9NVV0)	1.05 ± 0.059	1.02 ± 0.0023	1.01 ± 0.02	1 ± 0.059	1.021 ± 0.0047	1.011 ± 0.0058
A0A087X188|F5H0W4 and related entries (UniProt Q9UBW5)	0.979 ± 0.011	0.973 ± 0.018	0.946 ± 0.021	0.954 ± 0.012	0.955 ± 0.051	0.939 ± 0.021
A0A087X1K6|Q9Y2Y9 (UniProt Q9Y2Y9)	0.898 ± 0.033	0.938 ± 0.06	0.89 ± 0.071	0.91 ± 0.086	0.885 ± 0.15	0.899 ± 0.076
A0A0A0MRA5|Q9BUJ2-2|Q9BUJ2-4|Q9BUJ2 (UniProt Q9BUJ2)	1.01 ± 0.052	1.01 ± 0.026	1.01 ± 0.042	1.05 ± 0.035	1.04 ± 0.041	1.05 ± 0.057
A0A087WVB5|Q75MD7 and related entries (UniProt Q8WXX7)	0.963 ± 0.12	0.987 ± 0.04	1.11 ± 0.12	1.38 ± 0.094	1.3 ± 0.22	1.34 ± 0.32
A0A087X0R7|Q9H4L4 (UniProt Q9H4L4)	0.949 ± 0.044	0.928 ± 0.02	0.922 ± 0.051	0.929 ± 0.21	0.987 ± 0.084	1.03 ± 0.085
A0A087X279|P09913 (UniProt P09913)	1.02 ± 0.022	0.967 ± 0.075	1.08 ± 0.11	1.05 ± 0.047	0.963 ± 0.035	0.976 ± 0.058
A0A087WZV8|A0A0G2JN66 (UniProt P01850)	0.987 ± 0.081	0.99 ± 0.043	0.956 ± 0.045	0.941 ± 0.047	0.944 ± 0.041	0.973 ± 0.044
A0A0A0MTN0|Q13617 and related entries (UniProt Q13617)	1.02 ± 0.13	0.985 ± 0.089	0.965 ± 0.085	0.918 ± 0.12	0.99 ± 0.057	0.952 ± 0.041
A0A0A0MRR5|Q96BW1 and related entries (UniProt Q96BW1)	0.928 ± 0.021	0.98 ± 0.035	0.96 ± 0.018	0.9782 ± 0.0081	0.89 ± 0.099	0.9 ± 0.06
A0A087WUW9|Q9NXU5 (UniProt Q9NXU5)	0.936 ± 0.098	1.016 ± 0.0069	0.996 ± 0.043	0.95 ± 0.075	0.978 ± 0.043	0.958 ± 0.025
A0A087WW77|Q15334 (UniProt Q15334)	1.07 ± 0.017	1.07 ± 0.03	1.06 ± 0.015	1.03 ± 0.014	1.07 ± 0.05	1.07 ± 0.068
A0A0A0MSK6|Q13017 and related entries (UniProt Q13017)	1.05 ± 0.065	1.02 ± 0.035	1.03 ± 0.053	1.04 ± 0.13	1.05 ± 0.078	1.02 ± 0.085
A0A087WV23|Q5T123 and related entries (UniProt Q9H299)	0.907 ± 0.066	0.921 ± 0.048	0.929 ± 0.065	0.956 ± 0.068	0.907 ± 0.049	0.846 ± 0.056
A0A087WW14|Q0VDG4 and related entries (UniProt Q0VDG4)	1.06 ± 0.2	1.02 ± 0.087	1.04 ± 0.15	0.961 ± 0.097	1.01 ± 0.15	1.01 ± 0.09
A0A087WW84|Q14114-2|Q14114 and related entries (UniProt Q14114)	1.02 ± 0.039	0.99188 ± 0.00099	1.02 ± 0.066	1.01 ± 0.075	0.972 ± 0.082	0.994 ± 0.063
A0A0A0MQR1|Q9Y4K4 (UniProt Q9Y4K4)	1.02 ± 0.02	1.02 ± 0.033	1.02 ± 0.027	0.968 ± 0.054	1.02 ± 0.03	1.01 ± 0.049
A0A087WWK8|Q6DN90 (UniProt Q6DN90)	1.12 ± 0.08	1.09 ± 0.1	1.12 ± 0.035	1.12 ± 0.12	1.1 ± 0.11	1.16 ± 0.16
A0A0A0MTP3|Q99550 and related entries (UniProt Q99550)	0.874 ± 0.051	0.922 ± 0.09	0.849 ± 0.022	0.796 ± 0.14	0.864 ± 0.033	0.959 ± 0.051
A0A087WUM0|A0A087WYV9|A0A087X1F5 (UniProt P57105)	0.939 ± 0.077	0.93 ± 0.067	0.942 ± 0.092	0.937 ± 0.019	0.93 ± 0.013	0.909 ± 0.051
A0A087WWM4|F8WAN9 and related entries (UniProt Q9P2T1)	0.969 ± 0.042	0.949 ± 0.035	0.925 ± 0.048	0.9235 ± 0.007	0.938 ± 0.028	0.938 ± 0.05
A0A087X0I4|M0QXB4 and related entries (UniProt O14579)	1 ± 0.034	0.9982 ± 0.0093	1 ± 0.024	0.979 ± 0.027	0.999 ± 0.029	0.979 ± 0.034
A0A096LP07|A0A096LPJ3|A8K070 and related entries (UniProt Q13098)	0.92 ± 0.015	0.935 ± 0.023	0.902 ± 0.053	0.884 ± 0.024	0.938 ± 0.067	0.931 ± 0.017
A0A0C4DFL8|F5GX28 and related entries (UniProt O94953)	0.993 ± 0.067	0.99 ± 0.019	0.989 ± 0.011	0.976 ± 0.038	0.969 ± 0.067	0.997 ± 0.049
A0A0A0MT60|Q5T1M5 (UniProt Q5T1M5)	0.955 ± 0.049	0.963 ± 0.046	0.954 ± 0.054	0.984 ± 0.056	0.93 ± 0.055	0.955 ± 0.06
A0A087WYK8|B1AKJ5 and related entries (UniProt O43847)	1.01 ± 0.046	0.997 ± 0.061	0.973 ± 0.042	0.961 ± 0.077	0.992 ± 0.029	0.969 ± 0.05

Single records, from the list above. Order of values: NP40-soluble protein abundance (concentration: 1mM)	NP40-soluble protein abundance (concentration: 2mM)	NP40-soluble protein abundance (concentration: 4mM)	NP40-soluble protein abundance (concentration: 6mM)	NP40-soluble protein abundance (concentration: 8mM)	NP40-soluble protein abundance (concentration: 10mM)
A0A087X0I4|M0QXB4 and related entries (UniProt O14579) is listed as 1 ± 0.034	0.9982 ± 0.0093	1 ± 0.024	0.979 ± 0.027	0.999 ± 0.029	0.979 ± 0.034
A0A087WW84|Q14114-2|Q14114 and related entries (UniProt Q14114) is listed as 1.02 ± 0.039	0.99188 ± 0.00099	1.02 ± 0.066	1.01 ± 0.075	0.972 ± 0.082	0.994 ± 0.063
A0A087X0R7|Q9H4L4 (UniProt Q9H4L4) is listed as 0.949 ± 0.044	0.928 ± 0.02	0.922 ± 0.051	0.929 ± 0.21	0.987 ± 0.084	1.03 ± 0.085

— the supplement of paper PMC6411743
